Measured values taken from PubChem BioAssay AID540256 (National Center for Advancing Translational Sciences (NCATS), 2011).
“And” between values parts separate entries of the source, which are not always exact repeats. Identical values can stand only once. Among all 300,000 compounds or so, about 3,700 (1.2%) were called active. Inconclusive means that the source gave no clear call. Such entries were picked first, then a sample of the others. The call rests on the fitted dose curve; tested in HEK293 cells. Potencies beside an inconclusive call are fits to weak or partial responses and may not hold up.

Test: qHTS for Inhibitors of binding or entry into cells for Lassa Virus; further: nearly all actives have a fitted effect of over 50% in size
Conditions: Lassa virus pseudotype entry inhibition, cell reporter; activity change, negative = inhibition: at 37.9 µM (top of the series) unless noted
On the % scale 0 is the no-effect control and ±100 the full control effect; potency means the concentration at half of the fitted maximal effect.

Compound	Potency	activity change, negative = inhibition
Cc1nnc(SCC(=O)Nc2ccc3c(c2)OCCO3)n1CC1CCCO1 (centres undefined)	inconclusive: 7.3 µM [inhibitor, partial curve, poor fit]	–
CC1CCN(S(=O)(=O)c2ccc3nc(NCc4ccccc4)ccc3c2)CC1	inconclusive: 2.82 µM [inhibitor, single point]	–
O=C(CSc1nnc(-c2cccs2)o1)N1CCOCC1	–	inactive: 6.96%
COCCNC(=O)CCc1c(C)n(C)c2cc(-c3cc(OC)c(OC)c(OC)c3)nn2c1=O	inconclusive: 1.12 µM [inhibitor, full curve, poor fit]	–
CCOC(=O)c1cc2sccc2n1CC(=O)Nc1ccc(OC)c(OC)c1	inconclusive: 0.0046 µM [inhibitor, full curve, poor fit]	–
CC(Oc1ccc(Cl)cc1)c1ccn[nH]1 (centres undefined)	inconclusive: 7.08 µM [inhibitor, partial curve, poor fit]	–
COC(=O)c1cccc(NC(=O)c2cccc(OC)c2)c1	inconclusive: 2.59 µM [activator, partial curve]	–
Cc1[nH]ccc(=O)c1Cc1c(Cl)cccc1Cl	–	inactive: -13.3% [at 46.1 µM]
CC(=O)Nc1ccc2c(c1)CCc1ccccc1-2	–	inactive: -0.0691% [at 46.1 µM]
CN(C)CCNC(=S)Nc1ccc(Br)cc1	inconclusive: 31.6 µM [activator, partial curve, poor fit]	–
COc1ccc(-c2nc(C#N)c(NCCCn3ccnc3)o2)cc1OC	–	inactive: 20.9%
Cn1cnnc1SCC(=O)c1ccc(OC(F)F)cc1	–	inactive: 0.608%
N/C(Cn1cncn1)=N\NC(=O)C(=O)Nc1ccccc1	inconclusive: 6.51 µM [activator, single point]	–
O=C(c1ccc2c(Cl)c3c(nc2c1)CCCC3)N1CCC(N2CCCCC2)CC1	inconclusive: 29.1 µM [inhibitor, single point]	–
CCn1cc(C(C)NC(=O)Nc2ccc3c(c2)OCO3)c(C)n1 (centres undefined)	–	inactive: 3.85%
COc1ccc(-c2nnc3sc(COc4ccc(C)cc4)nn23)cc1	active: 12.6 µM	–
Cc1ccc(C(=O)NNC(=O)c2cc3ccccc3cc2O)cc1	–	inactive: -26.8%
COc1ccc(CC(=O)OCC(=O)Nc2ccc(Cl)cc2C)cc1	inconclusive: 35.5 µM [inhibitor, single point]	–
COc1ccc(/C=C/c2onc(C)c2S(=O)(=O)N2CCC(C(=O)N3CCC(C)CC3)CC2)cc1	inconclusive: 35.5 µM [inhibitor, single point] and inconclusive: 1.58 µM [inhibitor, full curve, poor fit]	–
S=c1[nH]nc(COc2cccc3ccccc23)n1Cc1ccccc1	inconclusive: 1.41 µM [inhibitor, partial curve, poor fit]	–
O=C1Nc2c(c(=O)[nH]c(=O)n2Cc2ccccc2)C1(NS(=O)(=O)c1ccccc1)C(F)(F)F (centres undefined)	–	inactive: -1.93% [at 46.1 µM]
Cc1cc(Br)ccc1NC(=O)c1ccc(-n2cncn2)c([N+](=O)[O-])c1	–	inactive: -8.37% [at 46.1 µM]

Compound	Potency	activity change, negative = inhibition
C#CCSc1nc(=O)c2cccnc2n1-c1ccc(C)cc1	inconclusive: 35.5 µM [inhibitor, single point]	–
CCOC(=O)N1CCN(C2CC(=O)N(c3ccccc3)C2=O)CC1 (centres undefined)	inconclusive: 1.16 µM [inhibitor, full curve]	–
O=C1COc2ccc(C(=O)CSc3nnc(-c4cccs4)n3Cc3ccccc3)cc2N1	inconclusive: 11.2 µM [inhibitor, partial curve]	–
Cc1ccc(S(=O)(=O)c2nc(-c3ccccc3)oc2N2CCCCCC2)cc1	inconclusive: 2.82 µM [inhibitor, partial curve, poor fit]	–
CC(=O)c1cccc(N(CC(=O)Nc2ccc(F)cc2)S(C)(=O)=O)c1	–	inactive: 8.39%
COCCN(Cc1nc(C2(c3ccc(C)cc3)CCCC2)no1)C(C)C	inconclusive: 0.1 µM [inhibitor, full curve, poor fit]	–
CCCNC(=O)c1ccccc1NC(=O)COc1cccc2c1OC(C)(C)C2	inconclusive: 7.08 µM [inhibitor, partial curve, poor fit]	–
CC(C)S(=O)(=O)c1oc(-c2ccc(F)cc2)nc1S(=O)(=O)c1ccc(F)cc1	inconclusive: 22.4 µM [inhibitor, single point]	–
CS(=O)(=O)Nc1ccc(S(=O)(=O)N2CCCC2)cc1	inconclusive: 6.31 µM [inhibitor, single point]	–
CCCC(=O)Nc1nnc(SCc2cc(=O)c3cc(C)ccc3[nH]2)s1	–	inactive: 3.51% [at 46.1 µM]
Cc1ccccc1CN1CCc2cc([N+](=O)[O-])ccc21	–	inactive: -23.9% [at 46.1 µM]
Cc1ccc2oc(/N=C(\N)NC(=O)C(C)(C)C)nc2c1	inconclusive: 1.41 µM [inhibitor, full curve, poor fit]	–
Cc1ccccc1C(=O)N1CCCN(C(=O)c2ccccc2C)CC1	–	inactive: -21.7%
COc1ccccc1C(=O)NCCC(=O)N1CC=C(c2ccccc2)CC1	–	inactive: 0.419%
Cc1ccc(-n2c(C)cc(C(=O)COc3cccnc3[N+](=O)[O-])c2C)cc1	inconclusive: 39.8 µM [inhibitor, partial curve, poor fit]	–
CCc1cccc2c(C(=O)COC(=O)c3ccc(O)cc3)c[nH]c12	inconclusive: 20.6 µM [inhibitor, single point]	–
Cc1ccc(NC(=O)CCNC(=O)c2ccc(Br)cc2)cc1S(=O)(=O)N1CCCCCC1	inconclusive: 35.5 µM [inhibitor, single point]	–
O=C(CSc1nnc(Cc2ccccc2)o1)c1ccc2c(c1)OCO2	–	inactive: -0.322%
Cc1ccc(S(=O)(=O)N2CC=C(c3ccc(F)cc3)CC2)cc1	–	inactive: -2.17%
O=C(Cc1cccs1)N1CCCC(c2nc3c(nnn3Cc3ccc(F)cc3)c(=O)[nH]2)C1 (centres undefined)	inconclusive: 29.1 µM [inhibitor, partial curve, poor fit]	–
CCn1nc(-c2ccccc2)nc2c(=O)n(C)c(=O)nc1-2	inconclusive: 0.708 µM [inhibitor, partial curve, poor fit]	–
Cc1ccc(OCC(=O)Nc2cc(S(=O)(=O)N3CCCCC3)ccc2C)c([N+](=O)[O-])n1	inconclusive: 35.5 µM [inhibitor, single point]	–
